Experimental data taken from PubChem BioAssay AID493014 (National Center for Advancing Translational Sciences (NCATS), 2011).
Screen size: about 340,000 compounds; about 170 (0.05%) were called active. The shares of active, inactive and inconclusive entries below differ from those in the screen. Calls follow the shape of the dose curve; as a rule, active = well fitted inhibition curve with a large enough effect in the signal ratio, with a control signal flat (not every such curve was filed as active); inconclusive = small, poorly fitted or top-dose-only effect, or effect the other way, or a change in a side signal; inactive = flat fitted curve, though single readings scatter; the % refers to the signal ratio. A potency beside an inconclusive call is a rough fit, not a confirmed value.

assay: qHTS Assay to Find Inhibitors of Chronic Active B-Cell Receptor Signaling; details: ABC-DLBCL IkBa-CBG/CBR reporter, luminescence ratio (green luciferase fused to IkBa over red control in TMD8 lymphoma cells), 4 h; activity change, negative = inhibition: at 46.1 µM (top of the series) unless noted;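 as to activity change, negative = inhibition: plate controls were basal doxycycline-induced cells for no effect and cells given 10 µM MG132 for full effect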
Outline: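 Cell line TMD8 (human ABC DLBCL), stably expressing tet-inducible CBG68-IkBa fusion and CBR; IMDM/0.5% FBS; cpd up to 46 uM; dox induction, 4 h, 37C/5% CO2; dual luminescence; green/red ratio; MG132 control.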
Potency is read from the fitted curve at half-maximal effect.

**Q.** For `N/C(=N\NC(=O)c1ccccc1)c1cc2ccccc2oc1=O`, which Potency is on record?
**A.** inconclusive: 11.2 µM [falling, partial curve]

**Q.** For `O=S(=O)(NC1=NCCCCC1)c1ccc2sc(NS(=O)(=O)c3ccc4ccccc4c3)nc2c1`, which activity change, negative = inhibition is on record?
**A.** inconclusive: -2.94%

**Q.** Which activity change, negative = inhibition does the source give for `S=C(NC1CCCCC1)c1ccc2c(c1)OCO2` here?
**A.** inconclusive: 8.12%

**Q.** With `COC(=O)c1c(NC(=O)C2CC=CCC2C(=O)O)sc(C)c1C` (centres undefined) as the molecule, how does the activity change, negative = inhibition read?
**A.** inconclusive: 14.6%

**Q.** For `CC(C)(C)n1nc2c(c1NC(=O)c1ccc(Cl)c([N+](=O)[O-])c1)CS(=O)(=O)C2`, which Potency is on record?
**A.** inconclusive: 7.94 µM [rising, partial curve, poor fit]

**Q.** Which “activity change, negative = inhibition” value does the source give for `CN(CC1CCCN(CCc2cccc(C(F)(F)F)c2)C1)C(=O)c1ccco1` (centres undefined) here?
**A.** inactive: 4.65%

**Q.** With `Cc1cc(=O)n2c(C(=O)Nc3ccc(C(=O)OC(C)C)cc3)c(C(=O)Nc3ccccc3)sc2n1` as the molecule, how does the “activity change, negative = inhibition” value read?
**A.** inactive: 1.66%

**Q.** With `COc1cccc(C=O)c1OCCCOc1cccc2cccnc12` as the molecule, how does the Potency read?
**A.** inconclusive: 35.5 µM [falling, partial curve, poor fit]

**Q.** Which Potency does the source give for `CCc1ccc(OCc2nc(-c3ccccn3)no2)c(Br)c1` here?
**A.** inconclusive: 29.1 µM [falling, single point]

**Q.** With `COc1ccc(C2NC(=O)C(C#N)=C(S)N2c2ccc(C)cc2)cc1OC` (centres undefined) as the molecule, how does the activity change, negative = inhibition read?
**A.** inconclusive: -16.4%

**Q.** For `CCOC(=O)C1CCN(C(=O)COC(=O)CNC(=O)c2ccc(C(C)(C)C)cc2)CC1`, which activity change, negative = inhibition is on record?
**A.** inconclusive: 0.0193%

**Q.** With `O=C(Nc1ccc(C(F)(F)F)cc1)C1CC(=O)N(c2ccc3c(c2)OCCO3)C1` (centres undefined) as the molecule, how does the activity change, negative = inhibition read?
**A.** inconclusive: 4%

**Q.** With `CC(N)=Nc1ccc([N+](=O)[O-])cc1` as the molecule, how does the “activity change, negative = inhibition” value read?
**A.** inactive: 0.0953%

**Q.** For `CSc1ccccc1OCc1cc(C(=O)N2C[C@H]3CC[C@H]2C3)no1`, which activity change, negative = inhibition is on record?
**A.** inconclusive: 0.972%

**Q.** Which Potency does the source give for `NCCc1nc(-c2ccccc2)cs1` here?
**A.** inconclusive: 3.55 µM [rising, partial curve, poor fit]

**Q.** Which activity change, negative = inhibition does the source give for `Cc1nc2ccc3nc(NC(=O)c4ccc5c(c4)OCCO5)sc3c2s1` here?
**A.** inconclusive: -28.5%

**Q.** For `Cc1cc(-c2ccc(N=Nc3c(S(=O)(=O)O)cc4cc(S(=O)(=O)O)cc(N)c4c3O)c(C)c2)ccc1N=Nc1c(S(=O)(=O)O)cc2cc(S(=O)(=O)O)cc(N)c2c1O`, which Potency is on record?
**A.** inconclusive: 4.11 µM [falling, partial curve]

**Q.** For `Cc1cc(C)n(-c2nc(NCCO)c3c4c(sc3n2)CCCC4)n1`, which activity change, negative = inhibition is on record?
**A.** inconclusive: 7.49%

**Q.** With `Cc1cc(NC(=S)N(Cc2ccc(Br)cc2)Cc2ccc(C(=O)O)cc2)ccc1Cl` as the molecule, how does the activity change, negative = inhibition read?
**A.** inconclusive: 2.39%

**Q.** With `COc1ccc([C@H]2Cc3cc(O)cc(O)c3C(=O)O2)cc1O` as the molecule, how does the “activity change, negative = inhibition” value read?
**A.** inactive: -2.13%

**Q.** For `Cc1nc2cc(NC(=O)N3CCC(c4ccccc4)C3)ccc2n1C` (centres undefined), which activity change, negative = inhibition is on record?
**A.** inconclusive: 8.01%

**Q.** With `COC(=O)c1ccc(Cn2nc(-c3ccc(C)c(C)c3)ccc2=O)cc1` as the molecule, how does the activity change, negative = inhibition read?
**A.** inconclusive: 4.22%

**Q.** Which activity change, negative = inhibition does the source give for `CCOC(=O)C(C)(C)N(Cc1cccc(C)c1)S(=O)(=O)c1ccc(Cl)c([N+](=O)[O-])c1` here?
**A.** inconclusive: 7.91%

**Q.** With `CC(C)Oc1cccc(C(=O)NC(=S)Nc2ccc(Cl)c(C(=O)O)c2)c1` as the molecule, how does the “activity change, negative = inhibition” value read?
**A.** inactive: -16.5%

**Q.** Which activity change, negative = inhibition does the source give for `COc1cc(/C=C/C(=O)N2CCN(Cc3ccccc3)CC2)cc(OC)c1OC` here?
**A.** inconclusive: 3.13%

**Q.** For `C#CCn1cc(/C=N/NC(=O)COc2cccc3cccnc23)c2ccccc21`, which activity change, negative = inhibition is on record?
**A.** inconclusive: 2.97%

**Q.** Which Potency does the source give for `COc1ccc(CCC(=O)NC2CC(=O)N(c3ccc(C)c(C)c3)C2)cc1` (centres undefined) here?
**A.** inconclusive: 3.98 µM [falling, partial curve]

**Q.** Which activity change, negative = inhibition does the source give for `O=c1[nH]c(-c2ccccc2)nnc1-c1ccccc1` here?
**A.** inconclusive: 262%

**Q.** With `CCCOC(=O)c1ccc(-n2nnnc2SCC(=O)N2CCCCC2)cc1` as the molecule, how does the Potency read?
**A.** inconclusive: 20 µM [falling, partial curve, poor fit]

**Q.** With `O=C(N/N=C/c1ccccc1O)c1cccc(C(F)(F)F)c1` as the molecule, how does the activity change, negative = inhibition read?
**A.** inconclusive: -4.7%

**Q.** Which Potency does the source give for `O=C(NCC1CCCN1S(=O)(=O)c1cccs1)C(=O)Nc1ccc(F)cc1` (centres undefined) here?
**A.** inconclusive: 1.46 µM [falling, partial curve]

**Q.** With `C=C1C(=O)O[C@H]2C[C@]3(C)C([C@@H](OC(=O)/C(C)=C/C)[C@H]12)[C@](C)(O)CC[C@H]3O` (some centres undefined) as the molecule, how does the activity change, negative = inhibition read?
**A.** inconclusive: 2.68%

**Q.** Which “activity change, negative = inhibition” value does the source give for `O=C(NCc1ccc(Cl)cc1)C(=O)NCC(c1ccco1)S(=O)(=O)c1cccs1` (centres undefined) here?
**A.** inactive: -9.65%

**Q.** Which activity change, negative = inhibition does the source give for `CCN(C[C@H]1N[C@@](Cc2ccccc2)(C(=O)OC)[C@H]2C(=O)N(C)C(=O)[C@@H]12)S(=O)(=O)c1ccc(OC(F)(F)F)cc1` here?
**A.** inconclusive: -2.66%

**Q.** Which activity change, negative = inhibition does the source give for `Nc1ccc(-c2nc3cc(N)ccc3s2)cc1` here?
**A.** inconclusive: 14.8%

**Q.** With `CN1C=CC=C/C1=C1/SC(=S)N(Cc2ccccc2)C1=O` as the molecule, how does the “activity change, negative = inhibition” value read?
**A.** inactive: 1.3%

**Q.** With `CNC(=O)Nc1ccccc1F` as the molecule, how does the “activity change, negative = inhibition” value read?
**A.** inactive: 7.23%

**Q.** For `C/C(=N\NC(=O)c1c[nH]c2ccccc12)c1ccccn1`, which Potency is on record?
**A.** inconclusive: 35.5 µM [falling, partial curve]

**Q.** For `CN(C(=O)CSc1nc(N)nn1-c1ccccc1)c1ccccc1`, which “activity change, negative = inhibition” value is on record?
**A.** inactive: 4.03%

**Q.** Which Potency does the source give for `CCCCn1c(CCC)nc([N+](=O)[O-])c1Sc1ccc(Cl)cn1` here?
**A.** inconclusive: 20.6 µM [falling, partial curve]

**Q.** With `COC(=O)C1=CN(C(C)C)C=C(C(=O)OC)C1c1cccc(OC)c1` as the molecule, how does the “activity change, negative = inhibition” value read?
**A.** inactive: -5.13%

**Q.** With `COc1cccc(CN2CCNC(=O)C2CC(=O)NCC(C)(C)N2CCOCC2)c1OC` (centres undefined) as the molecule, how does the “activity change, negative = inhibition” value read?
**A.** inactive: -3.08%

**Q.** With `COCCNC(=O)/C(C#N)=C/c1cccc(/C=C(\C#N)C(=O)NCCOC)c1` as the molecule, how does the Potency read?
**A.** active: 14.6 µM

**Q.** For `C[C@H](CO)N1C[C@H](C)[C@@H](CN(C)S(=O)(=O)c2ccccc2)Oc2ccc(NC(=O)C3CC3)cc2C1=O`, which activity change, negative = inhibition is on record?
**A.** inconclusive: -2.41%

**Q.** Which Potency does the source give for `Cc1nc(-c2nnc(-c3ccccc3)o2)c(C(F)(F)F)o1` here?
**A.** inconclusive: 35.5 µM [falling, single point]

**Q.** For `COc1cc(/C=C(\C#N)C(=O)Nc2cc(C(F)(F)F)ccc2Cl)ccc1OCC(=O)Nc1cccc(C(F)(F)F)c1`, which “activity change, negative = inhibition” value is on record?
**A.** inactive: 8.24%

**Q.** Which activity change, negative = inhibition does the source give for `C=CCOc1ccc(CN(C)C(=O)CNC(=O)c2ccc(-c3ccccc3)cc2)cc1` here?
**A.** inconclusive: -7.8%

**Q.** With `CCN1C(=O)[C@H]2[C@@H](c3ccc(-c4ccccc4)cc3)N3CCCC[C@@]3(C(=O)OC)[C@H]2C1=O` as the molecule, how does the “activity change, negative = inhibition” value read?
**A.** inactive: -9.59%

**Q.** Which Potency does the source give for `O=C(Nc1cccc(NC(=O)c2ccc(-c3ccc(Br)cc3)o2)c1)c1ccco1` here?
**A.** inconclusive: 6.51 µM [falling, full curve]
